# Measured data: PubChem BioAssay AID1259254 (NCATS, 2017)
# Screen: 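Genome-wide screen for genes that prevent DNA re-replication in cancer cells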 (primary screen)
# Cells: human HCT116 colorectal cancer cells
# Knock-down reagent: single siRNA against human genes
# Duration: 3 days
# Read-out: 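Imaged Hoechst DNA stain sorts each cell into a cycle phase by DNA amount; per plate, G2 fraction set to 0% for non-targeting and 100% for GMNN siRNA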
# Scale: G2 robust z-score and G2 cells, % of GMNN control: higher = more G2 cells, more excess DNA replication; raw share of cells in G2: higher = larger share of cells with G2 DNA content
# Hit rule: 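Active siRNAs have a G2 robust z of 5 or more median absolute deviations over the median, which in these data means about 38% or higher of GMNN control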
# The deposit covers about 59,000 reagents; shown is a part drawn at random. Of all reagents, about 1,550 (2.6%) were called active. 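G2 share is only a proxy for re-replication; each gene was hit by three separate siRNAs, and active genes were retested.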 Raw values are not corrected between plates. The numbers tell different reagents against one gene apart. Reagent sequences are not shown. Not stated in the record: the amount of reagent.
target gene,reagent no.,G2 robust z-score,"G2 cells, % of GMNN control",raw share of cells in G2 (%),activity call
IVNS1ABP,1,-0.537,-0.808,4.67,inactive
IVNS1ABP,2,1.37,12.6,9.33,inactive
IVNS1ABP,3,0.874,9.12,6.59,inactive
CDK1,1,4.49,34.5,17,inactive
CDK1,2,4.08,31.7,16.1,inactive
CDK1,3,1.49,13.4,8.75,inactive
MOSPD3,1,0.689,7.81,7.98,inactive
MOSPD3,2,0.797,8.57,8.45,inactive
MOSPD3,3,-0.423,-0.00998,2.69,inactive
CKAP2L,1,0.925,9.48,7.01,inactive
CKAP2L,2,0.352,5.44,4.59,inactive
CKAP2L,3,0.167,4.14,4.51,inactive
SPESP1,1,0.211,4.45,5.19,inactive
SPESP1,2,0.0649,3.42,4.3,inactive
SPESP1,3,-0.675,-1.78,2.63,inactive
HOXD13,1,-0.53,-0.762,3.92,inactive
HOXD13,2,-0.826,-2.84,4.6,inactive
HOXD13,3,1.81,15.7,10.7,inactive
STAG3L3,1,-0.522,-0.708,3.35,inactive
STAG3L3,2,-0.883,-3.25,2.19,inactive
STAG3L3,3,2.23,18.6,9.46,inactive
CFAP299,1,0.0877,3.58,4.88,inactive
CFAP299,2,1.6,14.2,8.01,inactive
CFAP299,3,-0.548,-0.886,2.91,inactive
SMYD4,1,0.709,7.95,5.83,inactive
SMYD4,2,0.1,3.67,4.44,inactive
SMYD4,3,1.79,15.6,8.99,inactive
DPYSL4,1,1.91,16.4,12.8,inactive
DPYSL4,2,2.11,17.8,9.6,inactive
DPYSL4,3,4.05,31.5,18.9,inactive

Reformatted: results already given.
{"target gene":"CDK1","reagent no.":3,"G2 robust z-score":1.49,"G2 cells, % of GMNN control":13.4,"raw share of cells in G2 (%)":8.75,"activity call":"inactive"}
{"target gene":"MOSPD3","reagent no.":1,"G2 robust z-score":0.689,"G2 cells, % of GMNN control":7.81,"raw share of cells in G2 (%)":7.98,"activity call":"inactive"}

Further results follow:
target gene,reagent no.,G2 robust z-score,"G2 cells, % of GMNN control",raw share of cells in G2 (%),activity call
TRAT1,1,0.347,5.41,5.92,inactive
TRAT1,2,0.0454,3.29,5.79,inactive
TRAT1,3,-0.475,-0.372,3.14,inactive
RPL11,1,2.59,21.2,14,inactive
RPL11,2,1.49,13.4,9.52,inactive
RPL11,3,0.913,9.39,6.75,inactive
CNR1,1,-0.547,-0.882,5.53,inactive
CNR1,2,3.2,25.5,13.4,inactive
CNR1,3,-0.000675,2.96,4.18,inactive
ZNF552,1,-0.749,-2.31,1.98,inactive
ZNF552,2,-0.583,-1.13,5.4,inactive
ZNF552,3,-0.357,0.456,3.78,inactive
PDCD10,1,-1.2,-5.48,2.84,inactive
PDCD10,2,0.65,7.54,7.25,inactive
PDCD10,3,-0.394,0.198,3.25,inactive
FRMD7,1,0.0522,3.33,5.5,inactive
FRMD7,2,1.1,10.7,6.35,inactive
FRMD7,3,1.34,12.4,6.87,inactive
